About 4,300 (3.1%) of roughly 140,000 compounds were called active. The inconclusive results got no clear call from the source; some entries with a clear call stand among them for comparison.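 How the source made its calls: active means readout at or below -70, meaning at least 70% loss of cells showing the perinucleolar compartment, a nuclear body marking cancer cells; inconclusive means readout between -30 and a set limit; inactive means the rest.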
Test: High Content Assay for Compounds that inhibit the Assembly of the Perinucleolar Compartment;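 further: plate controls were DMSO wells for no effect and camptothecin positive control wells for full effect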
Settings: PC3M PTB-GFP, PNC prevalence imaging, 16 h; at 10 µM; active compounds read low
Procedure, shortened: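 PC3M cells stably expressing PTB-GFP, 750–1000 cells/well, treated 16 h at 37 °C with compound (23 nl of library stock), in duplicate. After paraformaldehyde fixation and Hoechst stain, imaged at 20x; PNC prevalence scored by image analysis.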

Row | SMILES | activity change (PNC), negative = inhibition
1 | N#Cc1nc(COc2cccc(Cl)c2)oc1N1CCCC1 | inconclusive: -33.6%
2 | CCN(CC)C(=O)CN(C#N)c1nc(OC)nc(N(C)C)n1 | active: -81.8%
3 | CCOC(=O)C1=C(C)OC(N)=C(C#N)C1c1ccc(C)o1 (stereo not drawn) | inactive: 56.2%
4 | CCCN(CCC)S(=O)(=O)c1ccc(NC(=O)COc2ccccc2)cc1 | inconclusive: -39.2%
5 | CC/C(=N\n1nnnc1Nc1ccccc1)c1ccccc1 | active: -100%
6 | Cc1cccc(-n2c(-c3csc4ccccc34)n[nH]c2=S)c1 | inactive: -0.972%
7 | O=C(c1ccc(Cl)cc1)c1ccc(CN2C(=O)c3ccccc3C2=O)o1 | inconclusive: -39.2%
8 | CC1(C)CC(=O)c2c(noc2-c2ccccc2)C1 | inactive: -1.79%
9 | CCCCNC(=O)OCCNC(=O)NC | inactive: -7.28%
10 | COc1ccccc1C1(CC(=O)O)CCOC(C(C)C)C1 (stereo not drawn) | inconclusive: -31.6%
11 | CCOc1cc(C2C(C#N)=C(N)SC(N)=C2C#N)ccc1OCCN1CCOCC1 | inconclusive: -68.9%
12 | CC(C)(C)n1ncc(Oc2ccccc2[N+](=O)[O-])c(Cl)c1=O | inactive: -26.5%
13 | O=C(O)c1ccccc1NS(=O)(=O)c1ccccc1C(F)(F)F | inconclusive: -38.9%
14 | COC(=O)CSc1nc(N)c(NC(=O)c2ccc(OC)c(OC)c2)c(=O)[nH]1 | inconclusive: -52.8%
15 | Cc1ccc(C(=O)CSc2n[nH]c(C)n2)cc1 | inactive: 11.5%
16 | Cc1c(C(N)=O)sc2ncn(CC(=O)OC(C)C)c(=O)c12 | inconclusive: -37.2%
17 | CC1CCCC(C)N1C(=O)Cc1ccccc1 (stereo not drawn) | inactive: -1.88%
18 | COC(=O)c1cccc(N(C(=O)c2cnccn2)C(C(=O)NC2CCCCC2)c2cn(C)nc2C)c1 (stereo not drawn) | inconclusive: -36.8%
19 | C/C(=N\NC(=O)c1ccncc1)C12CC3CC(CC(C3)C1)C2 | active: -118%
20 | COc1ccc(Cn2c(O)c(C=Nc3ccc(C)cc3)c3ccccc3c2=O)cc1 | inconclusive: -42.8%
21 | COC(=O)CC1=NC(=O)CS1 | inconclusive: -61.3%
22 | COc1ccc(/C=N/Nc2nc(=O)[nH]nc2C)cc1[N+](=O)[O-] | inactive: 46.2%
23 | Cc1ccc(C(=O)N/C(=C\c2cccnc2)c2nc3ccccc3[nH]2)cc1 | inconclusive: -37.8%
24 | C=CCNC(=O)c1c(Cl)nc(C)c([N+](=O)[O-])c1C | inconclusive: -34.9%

From compound 4 to 8, copied from above:
Row | SMILES | activity change (PNC), negative = inhibition
4 | CCCN(CCC)S(=O)(=O)c1ccc(NC(=O)COc2ccccc2)cc1 | inconclusive: -39.2%
5 | CC/C(=N\n1nnnc1Nc1ccccc1)c1ccccc1 | active: -100%
6 | Cc1cccc(-n2c(-c3csc4ccccc34)n[nH]c2=S)c1 | inactive: -0.972%
7 | O=C(c1ccc(Cl)cc1)c1ccc(CN2C(=O)c3ccccc3C2=O)o1 | inconclusive: -39.2%
8 | CC1(C)CC(=O)c2c(noc2-c2ccccc2)C1 | inactive: -1.79%

Additional entries:

Row | SMILES | activity change (PNC), negative = inhibition
25 | Cc1nc(N2CCCC2)c2nnn(Cc3ccccc3Cl)c2n1 | inconclusive: -31.3%
26 | CCNS(=O)(=O)c1ccc(S(=O)(=O)N(Cc2ccccn2)C2CCCCC2)cc1 | inconclusive: -63.3%
27 | CCN(CC)CCNC(=O)c1c(C)oc2cc(Br)c(OC)cc12 | inactive: -16.1%
28 | CCn1c(SCC(=O)Nc2sc3c(c2C#N)CCCC3)nnc1-c1ccncc1 | inactive: 2.13%
29 | CCCCNC(=O)COC(=O)c1ccc(NS(=O)(=O)c2ccc3c(c2)OCCO3)cc1 | inactive: 18.6%
30 | Cc1nnc2n(-c3ccccc3)c(=O)c3c4c(sc3n12)CC(C)CC4 (stereo not drawn) | inconclusive: -49.1%
31 | CC(C)[C@H](NS(=O)(=O)c1ccccc1)C(=O)OCC(=O)Nc1ccc2c(c1)OCO2 | inactive: 20%
32 | O=C1C(Cc2ccccc2)S/C(=N/N=C/c2ccco2)N1c1ccccc1 (stereo not drawn) | inactive: 75.9%
33 | N#CC1=C2Nc3ccccc3N2C(=O)NC1(c1ccccc1)C(F)(F)F (stereo not drawn) | inconclusive: -42.8%
34 | O=C(Oc1nsnc1N1CCOCC1)N1CCOCC1 | inactive: 10.1%
35 | Cc1cccc(OCc2nnc(SCC(=O)Nc3cccc(C(=O)N4CCOCC4)c3)o2)c1C | inconclusive: -35.1%
36 | O=C1CN(C(=O)c2cc3ccccc3oc2=O)C(c2ccc(F)cc2)c2cc(Br)ccc2N1 (stereo not drawn) | inconclusive: -62.9%
37 | O=C(/C(=C/O)N=Nc1ccc(Cl)cc1)c1ccncc1 | inactive: -11.3%
38 | Cc1cccc2c1[nH]c1nc(N/N=C\c3ccco3)nnc12 | inactive: 21%
39 | COc1ccc(-c2n[nH]c(C)c2-c2cc(OC)ccc2O)cc1 | inactive: 31.6%
40 | O=P(C1=C(N2CCOCC2)/C(=C\c2ccccc2)CC1)(N1CCOCC1)N1CCOCC1 | inconclusive: -36.6%
41 | O=c1cc(C(F)(F)F)[nH]c2c(C(F)(F)F)cccc12 | inactive: 16%
42 | O=C(N/N=C/c1ccc(Cl)cc1Cl)c1n[nH]c2c1CCCC2 | active: -84.2%
43 | Cc1cccc(N2CCN(C(=O)c3ccncc3)CC2)c1C | inactive: 22.9%
44 | CCCOc1cccc(C(=O)N(Cc2cccs2)C2CCS(=O)(=O)C2)c1 (stereo not drawn) | inconclusive: -60.5%
45 | CCOC(=O)c1ccc(N2C(=O)CC(N3CCC(C(N)=O)(N4CCCCC4)CC3)C2=O)cc1 (stereo not drawn) | inconclusive: -40.5%
46 | O=C(c1ccco1)N1CCN(c2ccccc2F)CC1 | inconclusive: -49.5%
47 | COc1ccc(C2N(c3ccc(OC)cc3)C(=S)N3CCCN23)cc1 (stereo not drawn) | inconclusive: -49.5%
48 | COc1cc(C)ccc1OCCCOc1ccccc1Br | inconclusive: -46.6%

Row | SMILES | activity change (PNC), negative = inhibition
49 | COc1c(S(=O)(=O)n2nc(C)cc2C)ccc(Cl)c1Cl | inactive: 8.25%
50 | Cc1ccccc1CN(c1ccc(C(=O)Nc2cccnc2)cc1)S(C)(=O)=O | inconclusive: -35.3%
51 | Nc1nc(SCC(=O)NCc2ccccc2)n[nH]1 | inactive: 19%
52 | CCC(C(=O)OCC(=O)Nc1ccc(SC(F)F)cc1)c1ccccc1 (stereo not drawn) | inconclusive: -30.3%
53 | Cc1ccc(CNC(=O)C(C)OC(=O)c2ccco2)cc1 (stereo not drawn) | inconclusive: -32.5%
54 | O=C(/C=C/c1ccccc1)N1CCCN(C(=O)/C=C/c2ccccc2)CC1 | inactive: 19%
55 | COc1ccc(C(=O)NCC(c2cccnc2)N2CCN(c3ccccc3)CC2)cc1OC (stereo not drawn) | inconclusive: -32.8%
56 | O=C1C2ON(c3ccccc3)C(c3cccnc3)C2C(=O)N1Cc1ccccc1 (stereo not drawn) | inconclusive: -59.2%
57 | S=c1[nH]nc(-c2ccc3c(c2)OCO3)n1-c1ccccc1 | inconclusive: -52.4%
58 | CC(C)C1CC(=O)NC(SCC(=O)Nc2ccc(Br)cc2)=C1C#N (stereo not drawn) | inconclusive: -64.8%
59 | O=C(O)C1C2CCC(O2)C1C(=O)Nc1cccc(F)c1 (stereo not drawn) | inconclusive: -64.2%
60 | CC(C)(C)NCC(O)COc1cccc2c1C[C@H](O)[C@H](O)C2 (stereo partly drawn) | active: -115%
61 | CCCCNC(=O)CCC(=O)NNc1nc2ccccc2c2nc(C)nn12 | inconclusive: -42.1%
62 | O=C(O/N=C\c1ccc(N2CCCCC2)c([N+](=O)[O-])c1)c1cccc(C(F)(F)F)c1 | inconclusive: -42.8%
63 | CCOC(=O)C(C(=O)OCC)C1CCS(=O)(=O)C1 (stereo not drawn) | active: -100%
64 | Cc1cccc(NC(=O)CCNC(=O)c2ccco2)c1 | inactive: -26.4%
65 | COc1cccc(C2CC(=O)Nc3cc4c(cc32)OCCO4)c1OC(C)C (stereo not drawn) | inactive: 12%
66 | O=C(Oc1cccc(N2C(=O)CCC2=O)c1)c1ccccc1 | inactive: -5.1%
67 | Cc1nc(C)c(C(=O)Nc2ccc(Oc3ccccc3)cc2)o1 | inconclusive: -40.2%
68 | Cc1nccc2[nH]c(=O)c(C(=O)NC3CCCCC3C)cc12 (stereo not drawn) | inconclusive: -31.1%
69 | CCCn1nnc(NC(=S)NC(=O)c2cccs2)n1 | inconclusive: -47.3%
70 | CC1=C(C(=O)NCc2ccccn2)C2(CCC(C)CC2)OC1=O (stereo not drawn) | inconclusive: -34.4%
71 | CC1CC(C)CN(c2ncnc3c2cnn3Cc2ccc(Cl)cc2)C1 (stereo not drawn) | inconclusive: -34.7%
72 | Cc1c(NS(=O)(=O)c2cccs2)c(=O)n(-c2ccccc2)n1C | inconclusive: -53.2%

Row | SMILES | activity change (PNC), negative = inhibition
73 | CC(C)NC(=S)N/N=C/c1ccc(N2CCOCC2)cc1 | inactive: -12.3%
74 | Cc1ccnc(SCc2cc(=O)c(OC(=O)c3ccc(S(=O)(=O)N(C)C)cc3)co2)n1 | active: -109%
75 | Cc1cccc(CSc2cn(CC(=O)N3CCOCC3)c3ccccc23)c1 | inactive: 101%
76 | C/C(=N\O)C(=O)NCc1ccncc1 | inconclusive: -38.8%
77 | CC(=O)NC1CC2CCC(C1)N2Cc1ccc(C)cc1 (stereo not drawn) | inconclusive: -42.2%
78 | CSc1nsc(SCC(=O)NC2CCCCC2)n1 | inconclusive: -43.4%
79 | CCOc1ccc2c(c1)c1nnc(SCC(=O)N3CCC(C)CC3)nc1n2C | inconclusive: -78.2%
80 | COc1ccc(Br)cc1-c1noc(-c2ccccc2F)n1 | inconclusive: -33.8%
81 | CCN(CC)c1nc(C)nc2c1cnn2CCc1ccccc1 | inconclusive: -32.8%
82 | O=C(Nc1ccccc1)NC1(C(=O)N2CCN(c3ncccn3)CC2)CCCCC1 | inconclusive: -35.7%
83 | COC(=O)c1c(-c2ccc(C)cc2)csc1NC(=O)Cc1ccc(OC)c(OC)c1 | inactive: -29.3%
84 | COc1cccc(-n2nnnc2SCC(=O)c2ccc(NC(C)=O)cc2)c1 | inconclusive: -34.3%
85 | CC(NC(=O)OCc1ccccc1)C(=O)NCC(=O)NC(Cc1ccc(OC(C)(C)C)cc1)C(=O)OC(C)(C)C (stereo not drawn) | inconclusive: -41.6%
86 | CCCC(=O)NC(=S)Nc1ccccc1C(=O)OC | active: -108%
87 | O=c1c2c3c(sc2nc2n1CCC2)CCC3 | inconclusive: -66.5%
88 | Cc1cccc(C(C)C)c1-n1nnnc1-c1ccccc1 | inconclusive: -38.5%
89 | Cc1ccc(-n2[nH]c(C)c(/C=N/c3ccccn3)c2=O)cc1 | inactive: -27.4%
90 | CC(C)OC(=O)CSc1nnc(SCc2cccc3ccccc23)s1 | inactive: 24.9%
91 | O=C(Cc1c[nH]c2ccccc12)NCc1cccs1 | inconclusive: -35.5%
92 | NC(=O)C1C(c2ccccc2)=C1c1ccccc1 | active: -127%
93 | Cc1cc(C(=O)COC(=O)c2ccc[nH]c2=O)c(C)n1C | inconclusive: -44.6%

Reference: PubChem BioAssay AID2417 (National Center for Advancing Translational Sciences (NCATS), 2010)
